Results as given in publication PMC7641642.
These are yes or no findings as the source states them, for the method shown. Binding seen in cells or lysates may run through a third protein. Some entries that bind do so weakly or less than the wild type.

The chains behind the UniProt entries cited, without tags or fusion partners. Residues count along the entry.
UniProt P25911, residues 129-226: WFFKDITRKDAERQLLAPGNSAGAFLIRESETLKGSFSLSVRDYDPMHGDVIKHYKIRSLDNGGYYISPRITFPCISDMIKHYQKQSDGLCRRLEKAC

T1: SHIP1SH2 (mouse) (UniProt Q9ES52)
T1 sequence: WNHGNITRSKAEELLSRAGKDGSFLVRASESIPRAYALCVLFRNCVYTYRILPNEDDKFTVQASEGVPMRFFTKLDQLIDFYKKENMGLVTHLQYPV

B1: CD22 (receptor, UniProt P35329 22-868)
chain: SANDWTVDHPQTLFAWEGACIRIPCKYKTPLPKARLDNILLFQNYEFDKATKKFTGTVLYNATKTEKDPESELYLSKQGRVTFLGNRIDNCTLKIHPIRANDSGNLGLRMTAGTERWMEPIHLNVSEKPFQPYIQMPSEIRESQSVTLTCGLNFSCFGYDILLKWFLEDSEITSITSSVTSITSSVTSSIKNVYTESKLTFQPKWTDHGKSVKCQVQHSSKVLSERTVRLDVKYTPKLEIKVNPTEVEKNNSVTMTCRVNSSNPKLRTVAVSWFKDGRPLEDQELEQEQQMSKLILHSVTKDMRGKYRCQASNDIGPGESEEVELTVHYAPEPSRVHIYPSPAEEGQSVELICESLASPSATNYTWYHNRKPIPGDTQEKLRIPKVSPWHAGNYSCLAENRLGHGKIDQEAKLDVHYAPKAVTTVIQSFTPILEGDSVTLVCRYNSSNPDVTSYRWNPQGSGSVLKPGVLRIQKVTWDSMPVSCAACNHKCSWALPVILNVHYAPRDVKVLKVSPASEIRAGQRVLLQCDFAESNPAEVRFFWKKNGSLVQEGRYLSFGSVSPEDSGNYNCMVNNSIGETLSQAWNLQVLYAPRRLRVSISPGDHVMEGKKATLSCESDANPPISQYTWFDSSGQDLHSSGQKLRLEPLEVQHTGSYRCKGTNGIGTGESPPSTLTVYYSPETIGKRVALGLGFCLTICILAIWGMKIQKKWKQNRSQQGLQENSSGQSFFVRNKKARRTPLSEGPQSQGCYNPAMDDTVSYAILRFPESDTHNTGDAGTPATQAPPPNNSDSVTYSVIQKRPMGDYENVNPSCPEDESIHYSELVQFGAGKRPQAKEDVDYVTLKH
modifications: tyrosine-phosphorylated (pervanadate-stimulated cells; sites not stated)
B2: phosphorylated CD79a (receptor, UniProt P11911 29-220)
chain: LRVEGGPPSLTVNLGEEARLTCENNGRNPNITWWFSLQSNITWPPVPLGPGQGTTGQLFFPEVNKNHRGLYWCQVIENNILKRSCGTYLRVRNPVPRPFLDMGEGTKNRIITAEGIILLFCAVVPGTLLLFRKRWQNEKFGVDMPDDYEDENLYEGLNLDDCSMYEDISRGLQGTYQDVGNLHIGDAQLEKP
modifications: tyrosine-phosphorylated (blotted with anti-pCD79a Y182)

Key:
SHIP1SH2 (mouse) = target: T1, SHIP1SH2 (mouse); assay: pull-down; SH2 domain coupled to CNBr-Sepharose beads added to cleared 1% NP-40 lysates of mouse splenic B cells (stimulated 5 min at 37°C with 100 μM pervanadate, 10 μg/mL anti-IgG H+L or 6.4 μg/mL F(ab’)2 anti-IgG H+L), 2 h at 4°C, washed 3x in lysis buffer, eluted in reducing Laemmli buffer, immunoblot; only the target purified
LynSH2 (mouse) = LynSH2 (mouse) (UniProt P25911); assay: as above

| Binder | binding (SHIP1SH2 (mouse)) | binding (LynSH2 (mouse)) |
| --- | --- | --- |
| B1 | binds | – |
| B2 | binds | binds |
